# Data as given in the supplement of paper PMC5407854, “Inhibitor of ppGalNAc-T3-mediated O-glycosylation blocks cancer cell invasiveness and lowers FGF23 levels” (eLife, 2017).
# Some of the results follow. Small differences around the control level are noise.
# System: ppGalNAc-T3 sensor
# Test: T3 sensor activation Q score (MG/GFP ratio z-score vs DMSO controls) (SD units); higher = more sensor activation (inhibition of ppGalNAc-T3 glycosylation)
# Conditions: HEK293 sensor cells; 10 µM; 6 h
# Procedure: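 Cells were treated with compound at 10 uM for 6 h, then MG/GFP ratio was read by flow cytometry (10,000 cells per well, duplicate wells). Q = (R - R_neg)/SD_neg relative to DMSO vehicle controls; the signal rises when the glycosyltransferase is inhibited.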
row,Structure (SMILES),T3 sensor activation Q score
1,O=c1[nH]c2c(c(=O)n1C1CCCCC1)CCC2,-0.035
2,CCOc1ccc(CN2CCN(c3ccc(F)cc3)CC2)cc1,-0.18
3,CCN1CCN(Cc2ccc([N+](=O)[O-])cc2)CC1,-0.045
4,COc1ccc(CN2CCN(C)CC2)c(OC)c1C,0.28
5,COc1ccccc1N1CCN(Cc2cc(C)ccc2C)CC1,0.325
6,NCCc1nc(N)n[nH]1,1.6
7,CC(C)c1ccc(CN2CCN(C)CC2)cc1,-0.15
8,CN(C)C=NC(=O)CN1CCCC1=O,0.39
9,COc1ccc(CN2CCN(c3cccc(Cl)c3)CC2)c(OC)c1,0.335
10,COc1ccc(CN2CCN(c3ccccc3C)CC2)c(OC)c1,0.935
11,Cc1cccc(CN2CCN(C)CC2)c1,0.565
12,COc1ccccc1N1CCN(Cc2ccccc2F)CC1,0.02
13,CCOc1ccccc1N1CCN(Cc2ccc(OC)cc2)CC1,0.11
14,O=[N+]([O-])c1ccc(N2CCN(Cc3c(F)cccc3F)CC2)cc1,-0.395
15,COc1cc(OC)c(CN2CCN(c3ccccc3)CC2)cc1Br,0.74
16,Cc1cccc(N2CCN(Cc3ccc(F)cc3)CC2)c1C,-0.275
17,CCN1CCN(Cc2cccc(F)c2)CC1,-0.065
18,Cc1ccc(CN2CCN(c3ccccc3)CC2)c(C)c1,-0.15
19,O=C(CN1CCCCC1)c1ccccc1,0.315
20,COc1ccccc1N1CCN(Cc2ccc(Cl)cc2)CC1,0.32

row,Structure (SMILES),T3 sensor activation Q score
1,O=[N+]([O-])c1ccc(N2CCN(Cc3ccccc3F)CC2)cc1,-0.4
2,CN1CCN(Cc2c(F)cccc2F)CC1,0.06
3,CN1CCC(N2CCOCC2)CC1,0.47
4,COc1ccc(CN2CCN(c3ccccc3)CC2)cc1O,-0.14
5,CCN1CCN(Cc2cc(F)ccc2F)CC1,1.55
6,CN(C)c1ccc(CN2CCN(c3ccc(F)cc3)CC2)cc1,-0.16
7,CCOc1ccccc1N1CCN(Cc2ccccc2C)CC1,0.5
8,CCN1CCN(Cc2cccc(Br)c2)CC1,-0.48
9,CCN1CCN(Cc2ccc(OC)c(OC)c2OC)CC1,0
10,COc1ccc(N2CCN(Cc3ccc(F)cc3)CC2)cc1,0.17
11,O=C(NC(=O)c1c(F)cccc1F)Nc1ccc(Cl)cc1,-1.39
12,COc1ccc(N2CCN(Cc3cccc(Cl)c3Cl)CC2)cc1,0.175
13,O=[N+]([O-])c1ccccc1CN1CCN(c2cccc(Cl)c2)CC1,0.125
14,COc1ccc(N2CCN(Cc3ccc(Cl)cc3)CC2)cc1,0.035
15,CC(=O)c1ccc(N2CCN(Cc3cccc(Cl)c3)CC2)cc1,-0.355
16,Cc1ccc(C)c(N2CCN(Cc3ccccc3)CC2)c1,-0.235
17,COc1ccc(CCNC2C3CC4CC(C3)CC2C4)cc1OC (stereo not given),0.875
18,CN(C)c1ccc(CN2CCN(c3ccccc3Cl)CC2)cc1,0.15
19,COc1ccc(CCNC2CCCC(C)C2)cc1 (stereo not given),1.25
20,Fc1ccccc1N1CCN(Cc2ccccc2)CC1,-0.35

# Rewritten bar-delimited: entries from further up.
row | Structure (SMILES) | T3 sensor activation Q score
4 | COc1ccc(CN2CCN(c3ccccc3)CC2)cc1O | -0.14
9 | CCN1CCN(Cc2ccc(OC)c(OC)c2OC)CC1 | 0
